Library screening results

Data taken from ChEMBL document CHEMBL3988442, “University of Dundee, Small-Polar-MMV Screening Library” (2021).

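Whole-cell assay for inhibitors of Mycobacterium tuberculosis growth, labelled Cornell in the record; the read-out is not stated. The concentration is filed as 10 mM, unlikely as a test dose, so the dose is not known. The record gives no direction; compounds strong in two other growth screens of this library score well above the rest, so higher reads as stronger inhibition. Of about 53,000 compounds tested this way, about 900 (1.7%) reached 50% or more in at least one test.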

The filed quantity is “Percent Effect” (%). How 0% and 100% were set is not recorded. Most values in the screen are low, and negative values occur. Compounds were drawn at random from those tested, without regard to their results.

For Cc1cc(F)ccc1NCC(=O)NCC(F)(F)F the result was -27.65%.
For Cc1cscc1C(=O)N1CCCC1CC(=O)c1cnn(C)c1 (stereo not given) the result was 16.82%.
For [H][C@@]12CN(Cc3ccsc3)C[C@]1([H])OCCN2Cc1cnn(C)c1 the result was 3.854%.
For COCCc1noc(CN2CCCC2Cn2cccn2)n1 (stereo not given) the result was -36.5%.
For OC1CCN(c2ccnc(NCCN3CCc4ccccc4C3)n2)C1 (stereo not given) the result was 19.82%.
For O=C(O)C(F)(F)F.O=C(O)C(F)(F)F.O=C(O)C(F)(F)F.[H][C@@]12CCCO[C@]1([H])[C@H](N(C)Cc1ccco1)CN2Cc1nccn1C the result was 3.006%.
For O=C(O)C(F)(F)F.O=C(O)C(F)(F)F.c1cncc(CN2CCOC(c3ncn4c(C5CC5)cccc34)C2)c1 (stereo not given) the result was 47.31%.
For CC(=O)N1Cc2ccccc2CC1C(=O)Nc1ccc(N(C)C)cn1 (stereo not given) the result was 37.35%.
For O=C(O)C(F)(F)F.[H][C@]12CCC(=O)N(c3cccnc3)[C@@]1([H])CCN2C(=O)c1ccc(C#N)cc1 the result was 0.7851%.
For CNC(=O)c1cccc(C2CNCCN2C(=O)C2CCNCC2)c1 (stereo not given) the result was 0.2477%.
For CC(CS(C)(=O)=O)N(C)C(=O)NCCCc1ccc(Cl)cc1 (stereo not given) the result was 12.33%.
For CC(C)c1nc(O)c2nnn(C[C@@H]3CCCN(Cc4ccsc4)C3)c2n1 the result was 7.526%.
For CS(=O)(=O)c1cn[nH]c1C1CCCCN1C(=O)Cc1cccnc1 (stereo not given) the result was -39.22%.
For CCN1CCCC1CNC(=O)Cc1c(C)n[nH]c1-c1ccc(OC)cc1 (stereo not given) the result was 17.71%.
For Cc1cccc(=O)n1CCC(=O)N1CC[C@@](O)(C2CCC2)[C@H](C)C1 the result was 13.12%.
For Cc1cccc(CN2CCC(C3Nc4ccccc4S(=O)(=O)N3)CC2)n1 (stereo not given) the result was -13.88%.
For CCCC(=O)NC1CCc2c(ccc(=O)n2Cc2csc(C)n2)C1.O=C(O)C(F)(F)F (stereo not given) the result was -0.06932%.
For CN1C(=O)C2(CC(=O)Nc3c2cnn3C(C)(C)C)c2ccccc21 (stereo not given) the result was 16.17%.
For c1csc(COC[C@H]2CCC[C@]23CN(Cc2ccoc2)CCO3)n1 the result was 15.07%.
For CCn1nc(C)cc1C(=O)NCc1noc(C(C)(C)C)n1 the result was 8.082%.
For Cc1nc(C2CCCN2Cc2cc(=O)n(C)c(=O)n2C)no1 (stereo not given) the result was -4.172%.
For CCN(CC)C(=O)CCNC(=O)c1ccccc1N1CCOCC1 the result was -15.51%.
For CN1CCc2[nH]nc(C(=O)N3CCC4(CN(C)C(=O)O4)C3)c2C1 (stereo not given) the result was -5.881%.
For O=S(=O)(c1ccc(F)cc1F)N1CCCCC1c1nnc2n1CCCC2 (stereo not given) the result was 10.12%.
For CS(=O)(=O)N1CCOCC2(CN(Cc3ccc(F)cc3)CCO2)C1.O=C(O)C(F)(F)F (stereo not given) the result was 5.884%.
For COC(=O)c1cccc(C(=O)N2CCN(c3ccc(Cl)cc3)CC2)n1 the result was 36.02%.
For CCN(CC)CC(=O)N1CCN(CCc2ccncc2)CC1 the result was 24.01%.
For CN(C)c1ccc(CN(CCCn2ccnc2)Cc2c[nH]cn2)cc1.O=C(O)CC(O)(CC(=O)O)C(=O)O the result was 2.428%.
For c1coc(-c2nc(CNC3CCCNC3)no2)c1 (stereo not given) the result was -16.14%.
For CCOC(=O)c1nc(COc2c(C)occc2=O)no1 the result was -39.87%.
For Cc1cccc(C(=O)N2CCCC2c2c(C)n[nH]c2C)c1 (stereo not given) the result was -8.17%.
For Cc1ccc(-c2nc(CSCCC(=O)NC(N)=O)co2)cc1 the result was 3.713%.
For CN(Cc1ccco1)Cc1cnc2n1CCN(c1ccccn1)CC2.O=C(O)C(F)(F)F.O=C(O)C(F)(F)F the result was 26.18%.
For Cc1cccc(C(=O)NC2CCN(c3cnn(C)c3)C2=O)n1 (stereo not given) the result was -23.25%.
For Cc1cccc(OCCN2CCC(c3ccnn3CCO)CC2)c1 the result was -13.34%.
For COCCc1nnc(NC(=O)CCCc2ccccc2)o1 the result was 30.31%.
For Cn1cc(CN2CCCC23CCN(C(=O)c2cccn2C)CC3)cn1.O=C(O)C(F)(F)F the result was -5.462%.
For O=C(O)C(F)(F)F.O=C(O)C(F)(F)F.O[C@@H]1CCN(CC2CCOC2)[C@H]1Cc1cccnc1 (stereo not given in full) the result was 26.45%.
For Cc1csc(C2NC3(CCCC3)C(=O)N2CC2CC2)n1 (stereo not given) the result was 8.916%.
For [H][C@]12CC[C@]([H])(CN(c3cc(N)nc(SC)n3)C1)N(CC1CC1)C2=O the result was -10.07%.
For CC(=O)NS(=O)(=O)c1ccc(F)cc1C(F)(F)F the result was -18.49%.
For CCc1noc(CN2CCCC2C(=O)OCc2ccccc2)n1 (stereo not given) the result was -2.879%.
For CN1CCC(CN(C)C(=O)c2cc(C3CCCN3C)ccn2)CC1 (stereo not given) the result was -55.3%.
For CS(=O)(=O)N1CC(c2nc[nH]n2)c2cc(C(=O)NC3CC3)ccc21 (stereo not given) the result was -17.97%.
For CC(C)NC(=O)NCCCc1cc(N)n(-c2ccccc2)n1 the result was -7.232%.
For CCN(CCNC(=O)C1CCCN(C(C)=O)C1)c1ccccc1C (stereo not given) the result was -10.33%.

For reference, 4 entries once more:

Compound	percent effect
CS(=O)(=O)c1cn[nH]c1C1CCCCN1C(=O)Cc1cccnc1 (stereo not given)	-39.22
Cn1cc(CN2CCCC23CCN(C(=O)c2cccn2C)CC3)cn1.O=C(O)C(F)(F)F	-5.462
COCCc1noc(CN2CCCC2Cn2cccn2)n1 (stereo not given)	-36.5
Cc1cccc(=O)n1CCC(=O)N1CC[C@@](O)(C2CCC2)[C@H](C)C1	13.12